Here are results for one substance from article PMC7181751.

The chains behind the UniProt entries cited, without tags or fusion partners. Residues count along the entry.
UniProt P56726, residues 33-793: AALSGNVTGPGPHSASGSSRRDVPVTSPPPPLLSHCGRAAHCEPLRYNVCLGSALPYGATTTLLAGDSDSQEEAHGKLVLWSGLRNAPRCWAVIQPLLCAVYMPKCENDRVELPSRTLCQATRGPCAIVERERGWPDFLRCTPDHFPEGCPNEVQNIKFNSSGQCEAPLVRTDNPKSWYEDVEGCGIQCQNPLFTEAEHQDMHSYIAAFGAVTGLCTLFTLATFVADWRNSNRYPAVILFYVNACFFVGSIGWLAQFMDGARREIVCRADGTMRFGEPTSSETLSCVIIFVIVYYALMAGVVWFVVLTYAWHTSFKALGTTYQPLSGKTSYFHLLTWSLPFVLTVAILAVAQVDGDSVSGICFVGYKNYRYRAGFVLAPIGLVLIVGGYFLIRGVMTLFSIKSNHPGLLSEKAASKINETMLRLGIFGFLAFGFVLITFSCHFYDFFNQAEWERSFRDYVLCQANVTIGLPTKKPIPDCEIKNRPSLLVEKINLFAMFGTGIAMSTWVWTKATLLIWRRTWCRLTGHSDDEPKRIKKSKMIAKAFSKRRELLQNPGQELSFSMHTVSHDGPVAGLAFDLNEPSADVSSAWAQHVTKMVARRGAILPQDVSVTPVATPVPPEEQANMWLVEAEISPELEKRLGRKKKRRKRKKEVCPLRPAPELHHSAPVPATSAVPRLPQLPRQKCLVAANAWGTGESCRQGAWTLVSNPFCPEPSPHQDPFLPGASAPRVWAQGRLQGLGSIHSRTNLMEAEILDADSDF

The target in assay [1] is T1, Boc (bioregional Cdon-binding protein), endogenous (mouse (endogenous in NIH3T3)) (UniProt Q6AZB0).
T1 sequence: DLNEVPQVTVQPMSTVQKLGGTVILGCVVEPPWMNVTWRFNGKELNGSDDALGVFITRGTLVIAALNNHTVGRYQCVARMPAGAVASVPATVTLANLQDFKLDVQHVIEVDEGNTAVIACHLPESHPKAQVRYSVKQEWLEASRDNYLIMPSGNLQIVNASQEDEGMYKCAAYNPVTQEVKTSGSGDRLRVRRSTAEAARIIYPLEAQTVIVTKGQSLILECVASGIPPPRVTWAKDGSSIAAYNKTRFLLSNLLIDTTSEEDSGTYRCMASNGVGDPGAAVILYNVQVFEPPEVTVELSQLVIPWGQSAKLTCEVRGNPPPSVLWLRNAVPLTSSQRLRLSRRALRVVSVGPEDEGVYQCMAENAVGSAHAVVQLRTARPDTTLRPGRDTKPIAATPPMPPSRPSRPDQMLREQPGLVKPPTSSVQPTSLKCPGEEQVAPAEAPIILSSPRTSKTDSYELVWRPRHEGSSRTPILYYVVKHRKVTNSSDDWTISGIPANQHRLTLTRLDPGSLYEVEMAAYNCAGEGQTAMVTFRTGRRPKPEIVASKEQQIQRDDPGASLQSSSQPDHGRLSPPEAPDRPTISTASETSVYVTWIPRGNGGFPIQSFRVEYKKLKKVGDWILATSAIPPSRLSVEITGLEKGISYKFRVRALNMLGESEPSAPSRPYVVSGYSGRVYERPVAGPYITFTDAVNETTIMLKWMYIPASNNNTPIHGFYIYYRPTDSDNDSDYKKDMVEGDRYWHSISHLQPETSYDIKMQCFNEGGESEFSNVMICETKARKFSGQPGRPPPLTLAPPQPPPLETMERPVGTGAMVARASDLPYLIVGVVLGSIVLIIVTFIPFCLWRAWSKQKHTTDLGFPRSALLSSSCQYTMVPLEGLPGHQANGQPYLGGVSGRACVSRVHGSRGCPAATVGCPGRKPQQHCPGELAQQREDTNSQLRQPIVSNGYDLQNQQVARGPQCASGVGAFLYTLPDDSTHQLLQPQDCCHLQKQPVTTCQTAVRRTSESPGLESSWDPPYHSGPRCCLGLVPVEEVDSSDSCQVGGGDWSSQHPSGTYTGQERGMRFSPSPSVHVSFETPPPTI
Briefly: co-IP; NIH3T3/Cas9 Ptch1 KO cells transfected with mouse Ptch1, stimulated with Shh for 24 h; IP of Ptch1 and reciprocal IP of endogenous Boc, Western blot.

Assay [2] deals with T2, Gas1 (Growth arrest-specific gene 1), endogenous (mouse (endogenous in NIH3T3)) (UniProt Q01721).
T2 sequence: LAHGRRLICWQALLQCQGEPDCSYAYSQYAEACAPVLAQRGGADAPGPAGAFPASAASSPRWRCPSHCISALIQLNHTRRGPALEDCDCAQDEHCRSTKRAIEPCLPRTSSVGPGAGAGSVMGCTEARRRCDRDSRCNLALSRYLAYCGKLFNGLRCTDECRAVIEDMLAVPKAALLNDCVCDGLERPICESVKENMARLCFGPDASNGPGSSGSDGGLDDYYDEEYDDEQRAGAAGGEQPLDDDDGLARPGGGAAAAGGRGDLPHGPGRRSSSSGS
Briefly: co-IP; NIH3T3/Cas9 Ptch1 KO cells transfected with Myc-tagged Ptch2, stimulated with Shh protein (200 ng/mL) in serum-free medium for 40 min; IP of Ptch2 and reciprocal IP with antibody against endogenous Gas1, Western blot.

Assay [3] concerns the target T3, mouse Ptch2, Myc-tagged (pCMV6-mPtch2-MycDDK) (mouse) (UniProt O35595).
T3 sequence: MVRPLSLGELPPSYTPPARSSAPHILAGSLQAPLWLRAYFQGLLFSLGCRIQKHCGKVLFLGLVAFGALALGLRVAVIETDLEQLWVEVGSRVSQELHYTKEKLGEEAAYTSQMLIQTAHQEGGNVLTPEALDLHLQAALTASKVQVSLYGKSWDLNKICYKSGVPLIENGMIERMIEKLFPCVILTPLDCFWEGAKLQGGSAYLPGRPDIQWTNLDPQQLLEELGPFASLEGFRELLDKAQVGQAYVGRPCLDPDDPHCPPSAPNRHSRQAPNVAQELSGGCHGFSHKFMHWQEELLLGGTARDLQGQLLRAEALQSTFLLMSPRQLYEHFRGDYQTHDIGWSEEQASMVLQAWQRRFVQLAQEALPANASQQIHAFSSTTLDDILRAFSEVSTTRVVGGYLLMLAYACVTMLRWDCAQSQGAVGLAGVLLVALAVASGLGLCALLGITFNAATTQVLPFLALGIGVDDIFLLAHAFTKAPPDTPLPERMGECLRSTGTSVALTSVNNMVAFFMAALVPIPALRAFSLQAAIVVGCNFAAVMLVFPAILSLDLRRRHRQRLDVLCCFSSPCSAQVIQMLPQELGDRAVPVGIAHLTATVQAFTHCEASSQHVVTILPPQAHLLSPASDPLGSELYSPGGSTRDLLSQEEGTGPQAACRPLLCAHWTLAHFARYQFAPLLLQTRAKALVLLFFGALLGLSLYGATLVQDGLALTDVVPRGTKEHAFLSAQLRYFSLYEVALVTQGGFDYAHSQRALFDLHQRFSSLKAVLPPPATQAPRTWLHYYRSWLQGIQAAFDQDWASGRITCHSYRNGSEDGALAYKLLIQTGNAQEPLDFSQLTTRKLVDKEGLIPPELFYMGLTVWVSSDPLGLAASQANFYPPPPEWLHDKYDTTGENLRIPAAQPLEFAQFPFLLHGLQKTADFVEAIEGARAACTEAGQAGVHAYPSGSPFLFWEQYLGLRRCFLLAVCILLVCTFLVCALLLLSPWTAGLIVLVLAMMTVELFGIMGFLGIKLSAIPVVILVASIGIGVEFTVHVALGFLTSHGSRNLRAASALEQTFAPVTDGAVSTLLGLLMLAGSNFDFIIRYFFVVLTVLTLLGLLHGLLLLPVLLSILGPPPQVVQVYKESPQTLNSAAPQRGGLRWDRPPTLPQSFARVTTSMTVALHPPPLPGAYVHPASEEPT
The description is as above.

These are yes or no findings as the source states them, for the method shown. In cells and extracts the contact can be indirect. For part of these data: Sequences can lack the tags named with a protein.

Consider “Smoothened (Smo), endogenous (from UniProt P56726 33-793) (receptor)”, for which the binding entry is “no binding (condition: after Shh for 24 h)” in assay [1], “no binding” in assay [2] and “no binding (condition: after Shh for 40 min)” in assay [3].
